Test results published in the supplement of paper PMC10626197.
Structures can show the parent of a compound that is named as a salt. ± gives the standard deviation of the averaged measurements. Several reference drugs read as weak here; read low effects with care.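 MCF7, a breast cancer cell line, was exposed to pairs of drugs across a grid of doses. Every plate had solvent-only (DMSO) wells as the untreated reference and a doxorubicin series as the total-kill control. No hit threshold is applied to these viability readings.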

System: MCF7
Experiment: cell viability relative to DMSO control (raw); higher = more viable cells
Settings: exposure time 72 h
Experimental: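 MCF7 cells, 1000 cells/well in 384-well plates, treated with 6x6 dose matrices of drug pairs (1:3 serial dilutions, DMSO as lowest dose) for 72 h at 37 °C. Viability read by CellTiter-Glo luminescence, 3 biological replicates. Normalised viability sets 0% at the highest doxorubicin dose and 100% at the 0,0 µM control per combination.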

CN(Cc1cnc2nc(N)nc(N)c2n1)c1ccc(C(=O)N[C@@H](CCC(=O)O)C(=O)O)cc1 [Methotrexate] + COc1ccccc1OCC(O)COC(N)=O [Methocarbamol]
cell viability [%]
Settings	drug 2 concentration 0 µM	drug 2 concentration 0.0679012 µM	drug 2 concentration 0.203704 µM	drug 2 concentration 0.611111 µM	drug 2 concentration 1.83333 µM	drug 2 concentration 5.5 µM
drug 1 concentration 0.00617284 µM	103 ± 4.9	105 ± 3.9	108 ± 2.6	97.6 ± 16	100 ± 7.6	111 ± 7.1
drug 1 concentration 0.0185185 µM	119 ± 6	113 ± 5.1	122 ± 7.1	110 ± 4.8	117 ± 9.4	121 ± 2.6
drug 1 concentration 0.0555556 µM	99.5 ± 12	105 ± 14	108 ± 11	100 ± 14	96.3 ± 16	94.9 ± 12
drug 1 concentration 0.166667 µM	96.3 ± 4.1	93.7 ± 5.9	98.2 ± 8.5	97 ± 4.2	95.4 ± 8.5	89.4 ± 3.4
drug 1 concentration 0.5 µM	105 ± 3.5	107 ± 6.6	96.5 ± 4.4	96.5 ± 4.8	101 ± 6.6	99.5 ± 5.2

CC(=O)O[C@@]12CO[C@@H]1C[C@H](O)[C@@]1(C)C(=O)[C@H](O)C3=C(C)[C@@H](OC(=O)[C@H](O)[C@@H](NC(=O)OC(C)(C)C)c4ccccc4)C[C@@](O)([C@@H](OC(=O)c4ccccc4)[C@H]21)C3(C)C [Docetaxel] + Cn1cc(-c2ccc3nnc(C(F)(F)c4ccc5ncccc5c4)n3n2)cn1 [JNJ-38877605]
cell viability [%]
Settings	drug 2 concentration 0 µM	drug 2 concentration 0.0617284 µM	drug 2 concentration 0.185185 µM	drug 2 concentration 0.555556 µM	drug 2 concentration 1.66667 µM	drug 2 concentration 5 µM
drug 1 concentration 0.00617284 µM	93.3 ± 12	93.6 ± 9.1	99.7 ± 15	106 ± 9.1	88.5 ± 15	75.1 ± 12
drug 1 concentration 0.0185185 µM	103 ± 11	104 ± 12	104 ± 8.7	103 ± 11	102 ± 9.1	101 ± 12
drug 1 concentration 0.0555556 µM	92.4 ± 9.1	93 ± 11	96.3 ± 7.3	96.2 ± 6.9	90.5 ± 3.9	78.6 ± 5.4
drug 1 concentration 0.166667 µM	100 ± 8.5	102 ± 4.3	104 ± 6.7	97.2 ± 6.9	101 ± 6.5	98.5 ± 7.3
drug 1 concentration 0.5 µM	94 ± 8.6	108 ± 11	106 ± 11	105 ± 7.5	97.7 ± 2.5	83.4 ± 12

CS(=O)(=O)CCNCc1ccc(-c2ccc3ncnc(Nc4ccc(OCc5cccc(F)c5)c(Cl)c4)c3c2)o1 [Lapatinib] + Cc1ncc(NC(=O)c2ccc(CN3CCN(C)CC3)c(C(F)(F)F)c2)cc1Nc1nccc(-c2cccnc2)n1 [Flumatinib (mesylate)]
cell viability [%]
Settings	drug 2 concentration 0 µM	drug 2 concentration 0.617284 µM	drug 2 concentration 1.85185 µM	drug 2 concentration 5.55556 µM	drug 2 concentration 16.6667 µM	drug 2 concentration 50 µM
drug 1 concentration 0.123457 µM	86.3 ± 11	81.5 ± 7.4	86.2 ± 8.4	84.5 ± 6.5	1.13 ± 0.13	0.147 ± 0.028
drug 1 concentration 0.37037 µM	91.8 ± 16	80.3 ± 16	87.4 ± 13	90.6 ± 12	0.775 ± 0.2	0.166 ± 0.011
drug 1 concentration 1.11111 µM	86.5 ± 8.4	87.2 ± 7.6	89.5 ± 10	84.9 ± 7	0.684 ± 0.32	0.149 ± 0.041
drug 1 concentration 3.33333 µM	80.7 ± 8.2	76.5 ± 13	78.1 ± 6.4	72.7 ± 6.4	0.181 ± 0.066	0.159 ± 0.051
drug 1 concentration 10 µM	8.56 ± 13	29.9 ± 26	0.712 ± 0.21	0.353 ± 0.024	0.172 ± 0.031	0.291 ± 0.016

O=c1[nH]cc(F)c(=O)[nH]1 [5-Fluorouracil] + COc1cc2c(Oc3ccc(NC(=O)C4(C(=O)Nc5ccc(F)cc5)CC4)cc3F)ccnc2cc1OCCCN1CCOCC1 [Foretinib]
cell viability [%]
Settings	drug 2 concentration 0 µM	drug 2 concentration 0.348765 µM	drug 2 concentration 1.0463 µM	drug 2 concentration 3.13889 µM	drug 2 concentration 9.41667 µM	drug 2 concentration 28.25 µM
drug 1 concentration 0.617284 µM	83.2 ± 3.3	69 ± 3.9	57.8 ± 8.4	24.3 ± 5.3	2.79 ± 1.4	1.08 ± 1.3
drug 1 concentration 1.85185 µM	81.2 ± 14	79.1 ± 19	64.3 ± 13	33.6 ± 6.2	3.92 ± 2	1.17 ± 1.3
drug 1 concentration 5.55556 µM	71.2 ± 3.1	64.9 ± 4.5	55.7 ± 3.3	26.9 ± 5.1	2.67 ± 1.5	0.867 ± 1
drug 1 concentration 16.6667 µM	67.7 ± 10	65 ± 11	58.8 ± 9.1	22.9 ± 4.9	2.45 ± 1.4	0.86 ± 0.89
drug 1 concentration 50 µM	72.7 ± 6	61.4 ± 5.7	55.1 ± 6.2	18.1 ± 4.7	2.21 ± 1.1	1.1 ± 0.87

O=C1c2c(O)ccc(O)c2C(=O)c2c(NCCNCCO)ccc(NCCNCCO)c21 [Mitoxantrone] + CCCNC(=O)c1cn2ncnc(Nc3cc(C(=O)NC4CC4)ccc3C)c2c1C [BMS-582949 (hydrochloride)]
cell viability [%]
Settings	drug 2 concentration 0 µM	drug 2 concentration 0.37037 µM	drug 2 concentration 1.11111 µM	drug 2 concentration 3.33333 µM	drug 2 concentration 10 µM	drug 2 concentration 30 µM
drug 1 concentration 0.0123457 µM	92.1 ± 15	93.2 ± 7.8	92.3 ± 12	93.4 ± 9.8	80.4 ± 20	70.3 ± 10
drug 1 concentration 0.037037 µM	94.7 ± 13	89.3 ± 17	89.1 ± 12	88 ± 10	82.2 ± 12	72.3 ± 12
drug 1 concentration 0.111111 µM	84.9 ± 7.7	83.4 ± 14	85.1 ± 12	86.1 ± 14	75.5 ± 12	73.4 ± 13
drug 1 concentration 0.333333 µM	78.1 ± 12	77.5 ± 17	75.5 ± 15	72.4 ± 15	68.2 ± 15	56.1 ± 7.8
drug 1 concentration 1 µM	69.7 ± 12	71.5 ± 12	71 ± 14	75.4 ± 16	71.6 ± 14	83.2 ± 13

C/C(=C\c1csc(C)n1)[C@@H]1C[C@@H]2O[C@]2(C)CCC[C@H](C)[C@H](O)[C@@H](C)C(=O)C(C)(C)[C@@H](O)CC(=O)N1 [ixabepilone] + C=C1/C(=C\C=C2/CCC[C@]3(C)[C@@H]([C@H](C)CCCC(C)C)CC[C@@H]23)C[C@@H](O)C[C@@H]1O [Alfacalcidol]
cell viability [%]
Settings	drug 2 concentration 0 µM	drug 2 concentration 0.617284 µM	drug 2 concentration 1.85185 µM	drug 2 concentration 5.55556 µM	drug 2 concentration 16.6667 µM	drug 2 concentration 50 µM
drug 1 concentration 0.00185185 µM	92.9 ± 15	82.3 ± 3.6	93.5 ± 15	90.5 ± 11	69.9 ± 0.71	0.778 ± 0.048
drug 1 concentration 0.00555556 µM	100 ± 17	102 ± 13	98.3 ± 14	93.4 ± 12	78 ± 6.4	0.904 ± 0.21
drug 1 concentration 0.0166667 µM	97.7 ± 13	92.3 ± 8.9	94.5 ± 9.9	99.1 ± 7.1	79.2 ± 12	0.704 ± 0.084
drug 1 concentration 0.05 µM	108 ± 13	108 ± 9.9	103 ± 16	102 ± 11	93.8 ± 1.1	0.579 ± 0.079
drug 1 concentration 0.15 µM	114 ± 13	111 ± 11	113 ± 5.7	111 ± 8.7	77.1 ± 8.9	0.767 ± 0.16

CO[C@H]1C(=O)[C@]2(C)[C@@H](OC)C[C@H]3OC[C@@]3(OC(C)=O)[C@H]2[C@H](OC(=O)c2ccccc2)[C@]2(O)C[C@H](OC(=O)[C@H](O)[C@@H](NC(=O)OC(C)(C)C)c3ccccc3)C(C)=C1C2(C)C [Cabazitaxel] + Cc1ncc(NC(=O)c2ccc(CN3CCN(C)CC3)c(C(F)(F)F)c2)cc1Nc1nccc(-c2cccnc2)n1 [Flumatinib (mesylate)]
cell viability [%]
Settings	drug 2 concentration 0 µM	drug 2 concentration 0.617284 µM	drug 2 concentration 1.85185 µM	drug 2 concentration 5.55556 µM	drug 2 concentration 16.6667 µM	drug 2 concentration 50 µM
drug 1 concentration 0.0184691 µM	103 ± 7.7	105 ± 6.7	107 ± 9.8	120 ± 12	2.18 ± 0.64	0.434 ± 0.043
drug 1 concentration 0.0554074 µM	105 ± 5.3	107 ± 14	112 ± 7.2	119 ± 12	1.87 ± 1.2	0.472 ± 0.092
drug 1 concentration 0.166222 µM	95.7 ± 11	104 ± 10	107 ± 12	110 ± 10	30.3 ± 39	0.669 ± 0.45
drug 1 concentration 0.498667 µM	92.3 ± 5	93.3 ± 4.4	99.8 ± 4.6	98.1 ± 8.6	1.23 ± 0.2	0.389 ± 0.0057
drug 1 concentration 1.496 µM	105 ± 8.2	108 ± 8.2	114.2 ± 0.87	108 ± 4	1.63 ± 0.22	0.722 ± 0.031

CCCS(=O)(=O)Nc1ccc(F)c(C(=O)c2c[nH]c3ncc(-c4ccc(Cl)cc4)cc23)c1F [Vemurafenib] + C=C1/C(=C\C=C2/CCC[C@]3(C)[C@@H]([C@H](C)CCCC(C)C)CC[C@@H]23)C[C@@H](O)C[C@@H]1O [Alfacalcidol]
cell viability [%]
Settings	drug 2 concentration 0 µM	drug 2 concentration 0.617284 µM	drug 2 concentration 1.85185 µM	drug 2 concentration 5.55556 µM	drug 2 concentration 16.6667 µM	drug 2 concentration 50 µM
drug 1 concentration 0.154321 µM	97.4 ± 11	97.3 ± 16	95 ± 9.1	97.8 ± 19	80.6 ± 16	1.11 ± 0.096
drug 1 concentration 0.462963 µM	102 ± 8.2	98.1 ± 5.5	103 ± 20	94.1 ± 9.8	89.2 ± 14	0.595 ± 0.011
drug 1 concentration 1.38889 µM	103 ± 17	99.4 ± 16	106 ± 8.9	94.8 ± 11	83 ± 12	2.44 ± 2.1
drug 1 concentration 4.16667 µM	105 ± 6.9	114 ± 18	103 ± 8.1	93.7 ± 17	76.7 ± 6.8	0.507 ± 0.039
drug 1 concentration 12.5 µM	114 ± 17	93.8 ± 1.7	90 ± 2.2	93.3 ± 15	69.1 ± 7.3	1.09 ± 0.087
